Assay results: PubChem BioAssay AID328 (DTP/NCI, 2004)
The list shows only some results of the screen, not a fair sample: it covers a few groups of compounds. Not every dose and run of a compound is shown. T/C gives the treated animals as a percentage of the vehicle group. Where survival is the endpoint, the PubChem record calls one and a half times the control and up active, and a quarter to a half above the control has no call in these data; cut-offs in other NCI protocols can differ. Some T/C values are marked as having no survivor count here; that says nothing about deaths at the dose. Schedules are NCI's codes, taken here to give the interval after Q, in days (D) or hours (H), and the number of doses after X. Some doses were run more than once; the results are listed from low to high. Brackets with × stand for listed records that agree.

Tested on: BDF1 mice, P388 leukemia ip, median survival T/C
Experiment: NCI In Vivo Anticancer Drug Screen. Data for tumor model P388 Leukemia (intraperitoneal) in B6D2F1 (BDF1) mice
Conditions: T/C endpoint: median survival time, higher T/C = longer survival
Description: The antitumor activity of compounds was measured in mice bearing transplantable tumors. Survival or tumor size were measured and the results are expressed as the measurement made in the treated group (T) divided by the measurement made in the vehicle treated control group (C). The tumor model used in this assay is P388 Leukemia (intraperitoneal) in B6D2F1 (BDF1) mice

[1] = dose: 100.0 mg/kg/injection, schedule: Q04DX003 (ip), vehicle: saline with Tween-80
[2] = dose: 200.0 mg/kg/injection, schedule: Q04DX003 (ip), vehicle: saline with Tween-80
[3] = dose: 400.0 mg/kg/injection, schedule: Q04DX003 (ip), vehicle: saline with Tween-80
[4] = dose: 12.5 mg/kg/injection, schedule: Q01DX009 (ip), vehicle: saline with Tween-80
[5] = dose: 25.0 mg/kg/injection, schedule: Q01DX009 (ip), vehicle: saline with Tween-80

NP(=O)(OCc1ccccc1)N(CCCl)CCCl (centres undefined)
T/C (dose: 50.0 mg/kg/injection, schedule: Q04DX003 (ip), vehicle: saline with Tween-80): 104 % of control [survivor count not shown]
T/C [1]: 100 [survivor count not shown] and 131 % of control [survivor count not shown]
T/C (dose: 175.0 mg/kg/injection, schedule: Q04DX003 (ip), vehicle: saline with Tween-80): 136 % of control [survivor count not shown]
T/C [2]: 104 % of control [survivor count not shown]
T/C (dose: 264.0 mg/kg/injection, schedule: Q04DX003 (ip), vehicle: saline with Tween-80): 125 [survivor count not shown] and 140 % of control [survivor count not shown]
T/C [3]: 141 [survivor count not shown] (2×) and 175 % of control [survivor count not shown]
T/C (dose: 600.0 mg/kg/injection, schedule: Q04DX003 (ip), vehicle: saline with Tween-80): 175 [survivor count not shown] and 225 % of control [survivor count not shown]

COc1ccc(C(=O)O)cc1N(CCCl)CCCl
T/C (dose: 0.03 mg/kg/injection, schedule: Q01DX009 (ip), vehicle: Klucel (hydroxypropylcellulose) (HPC)): 104 % of control [survivor count not shown]
T/C (dose: 0.06 mg/kg/injection, schedule: Q01DX009 (ip), vehicle: Klucel (hydroxypropylcellulose) (HPC)): 114 % of control [survivor count not shown]
T/C (dose: 0.12 mg/kg/injection, schedule: Q01DX009 (ip), vehicle: Klucel (hydroxypropylcellulose) (HPC)): 114 % of control [survivor count not shown]
T/C (dose: 0.25 mg/kg/injection, schedule: Q01DX009 (ip), vehicle: Klucel (hydroxypropylcellulose) (HPC)): 115 [survivor count not shown] and 172 % of control [survivor count not shown]
T/C (dose: 0.5 mg/kg/injection, schedule: Q01DX009 (ip), vehicle: Klucel (hydroxypropylcellulose) (HPC)): 108 [survivor count not shown] and 209 % of control [survivor count not shown]
T/C (dose: 1.0 mg/kg/injection, schedule: Q01DX009 (ip), vehicle: Klucel (hydroxypropylcellulose) (HPC)): 135 % of control [survivor count not shown]
T/C (dose: 2.0 mg/kg/injection, schedule: Q01DX009 (ip), vehicle: Klucel (hydroxypropylcellulose) (HPC)): 153 [survivor count not shown] and 200 % of control [survivor count not shown]
T/C (dose: 2.0 mg/kg/injection, schedule: Q04DX003 (ip), vehicle: Klucel (hydroxypropylcellulose) (HPC)): 154 % of control [survivor count not shown]
T/C (dose: 3.0 mg/kg/injection, schedule: Q01DX009 (ip), vehicle: Klucel (hydroxypropylcellulose) (HPC)): 210 % of control [survivor count not shown]
T/C (dose: 3.0 mg/kg/injection, schedule: Q04DX003 (ip), vehicle: Klucel (hydroxypropylcellulose) (HPC)): 163 % of control [survivor count not shown]
T/C (dose: 4.0 mg/kg/injection, schedule: Q01DX009 (ip), vehicle: Klucel (hydroxypropylcellulose) (HPC)): 151 % of control [survivor count not shown]
T/C (dose: 4.0 mg/kg/injection, schedule: Q04DX003 (ip), vehicle: Klucel (hydroxypropylcellulose) (HPC)): 136 % of control [survivor count not shown]
T/C (dose: 4.4 mg/kg/injection, schedule: Q01DX009 (ip), vehicle: Klucel (hydroxypropylcellulose) (HPC)): 240 % of control [survivor count not shown]
T/C (dose: 6.6 mg/kg/injection, schedule: Q01DX009 (ip), vehicle: Klucel (hydroxypropylcellulose) (HPC)): 90 % of control [survivor count not shown]
T/C (dose: 6.6 mg/kg/injection, schedule: Q04DX003 (ip), vehicle: Klucel (hydroxypropylcellulose) (HPC)): 186 % of control [survivor count not shown]
T/C (dose: 8.0 mg/kg/injection, schedule: Q01DX009 (ip), vehicle: Klucel (hydroxypropylcellulose) (HPC)): 190 % of control [survivor count not shown]
T/C (dose: 10.0 mg/kg/injection, schedule: Q04DX003 (ip), vehicle: Klucel (hydroxypropylcellulose) (HPC)): 231 % of control [survivor count not shown]
T/C (dose: 15.0 mg/kg/injection, schedule: Q04DX003 (ip), vehicle: Klucel (hydroxypropylcellulose) (HPC)): 100 % of control [survivor count not shown]
T/C (dose: 16.0 mg/kg/injection, schedule: Q01DX009 (ip), vehicle: Klucel (hydroxypropylcellulose) (HPC)): 123 % of control [survivor count not shown]

Oc1c(SCCCl)c(SCCCl)c(O)c(SCCCl)c1SCCCl
T/C (dose: 44.0 mg/kg/injection, schedule: Q04DX003 (ip), vehicle: saline with Tween-80): 137 % of control [survivor count not shown]
T/C (dose: 66.0 mg/kg/injection, schedule: Q04DX003 (ip), vehicle: saline with Tween-80): 137 % of control [survivor count not shown]
T/C [1]: 133 [survivor count not shown] and 145 % of control [survivor count not shown]
T/C (dose: 150.0 mg/kg/injection, schedule: Q04DX003 (ip), vehicle: saline with Tween-80): 129 % of control [survivor count not shown]
T/C [2]: 154 % of control [survivor count not shown]
T/C [3]: 181 % of control [survivor count not shown]

Oc1cc(O)cc(N(CCCl)CCCl)c1
T/C (dose: 6.25 mg/kg/injection, schedule: Q01DX009 (ip), vehicle: water): 126 % of control [survivor count not shown]
T/C [4]: 158 % of control [survivor count not shown]
T/C (dose: 12.5 mg/kg/injection, schedule: Q01DX009 (ip), vehicle: water): 150 % of control [survivor count not shown]
T/C (dose: 12.5 mg/kg/injection, schedule: Q04DX003 (ip), vehicle: water): 112 % of control [survivor count not shown]
T/C [5]: 171 % of control [survivor count not shown]
T/C (dose: 25.0 mg/kg/injection, schedule: Q01DX009 (ip), vehicle: water): 160 % of control [survivor count not shown]
T/C (dose: 25.0 mg/kg/injection, schedule: Q04DX003 (ip), vehicle: water): 128 [survivor count not shown] and 133 % of control [survivor count not shown]
T/C (dose: 50.0 mg/kg/injection, schedule: Q01DX009 (ip), vehicle: saline with Tween-80): 200 % of control [survivor count not shown]
T/C (dose: 50.0 mg/kg/injection, schedule: Q01DX009 (ip), vehicle: water): 188 % of control [survivor count not shown]
T/C (dose: 50.0 mg/kg/injection, schedule: Q04DX003 (ip), vehicle: water): 135 [survivor count not shown] and 154 % of control [survivor count not shown]
T/C (dose: 100.0 mg/kg/injection, schedule: Q01DX009 (ip), vehicle: saline with Tween-80): 89 % of control [survivor count not shown]
T/C (dose: 100.0 mg/kg/injection, schedule: Q01DX009 (ip), vehicle: water): 191 % of control [survivor count not shown]
T/C (dose: 100.0 mg/kg/injection, schedule: Q04DX003 (ip), vehicle: water): 146 [survivor count not shown] and 163 % of control [survivor count not shown]
T/C (dose: 200.0 mg/kg/injection, schedule: Q04DX003 (ip), vehicle: water): 155 [survivor count not shown] and 200 % of control [survivor count not shown]

CCCCOc1ccc(N(CCCl)CCCl)cc1
T/C (dose: 6.25 mg/kg/injection, schedule: Q01DX009 (ip), vehicle: saline with Tween-80): 129 % of control [survivor count not shown]
T/C (dose: 6.25 mg/kg/injection, schedule: Q01DX009 (ip), vehicle: saline): 95 % of control [survivor count not shown]
T/C [4]: 104 % of control [survivor count not shown]
T/C (dose: 12.5 mg/kg/injection, schedule: Q01DX009 (ip), vehicle: saline): 120 % of control [survivor count not shown]
T/C (dose: 16.0 mg/kg/injection, schedule: Q01DX009 (ip), vehicle: saline): 104 % of control [survivor count not shown]
T/C [5]: 170 % of control [survivor count not shown]
T/C (dose: 25.0 mg/kg/injection, schedule: Q01DX009 (ip), vehicle: saline): 145 [survivor count not shown] and 208 % of control [survivor count not shown]
T/C (dose: 35.0 mg/kg/injection, schedule: Q01DX009 (ip), vehicle: saline): 204 % of control [survivor count not shown]
